Measurements reported in PubChem BioAssay AID652272 (Drosophila RNAi Screening Center, 2013).

Assay: 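Finding fly genes that regulate Hedgehog signal transduction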 (primary screen)
System: Drosophila clone 8 (Cl8) cells
Reagents: long dsRNA against Drosophila genes
Measured: 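Firefly light from a Hedgehog-responsive ptc promoter reporter and Renilla reference light, both read on a plate reader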
Scale: firefly Hh reporter signal: higher = more ptc reporter light; Renilla reference signal: higher = more Renilla control light
Hit rule: 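Called a hit if the two-replicate mean z-score lies below -2 or above +3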
Calls: active = hit: reporter lowered or raised; inactive = not a hit
In all, the deposit lists about 21,000 reagents; below is a random part of those that have a named target and a result. Of all reagents, 503 (2.4%) got an active call. 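Raw plate light values, not normalised; calls rest on replicate z-scores that were not deposited; hits include reporter decreases as well as increases.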 Names joined by + are all predicted targets of the reagent. Not stated in the record: the amount of reagent, the time to read-out.

| gene | dsRNA | firefly Hh reporter signal, replicate 1 | firefly Hh reporter signal, replicate 2 | firefly Hh reporter signal, replicate 3 | Renilla reference signal, replicate 1 | Renilla reference signal, replicate 2 | Outcome |
| --- | --- | --- | --- | --- | --- | --- | --- |
| CG13869 + CG11099 | DRSC06428 | 99683 | 60208 | – | 3029 | 4652 | inactive |
| Gyc89Da (Guanylyl cyclase at 89Da) | DRSC15008 | 1.44e5 | 1.36e5 | – | 5328 | 2872 | inactive |
| Pdi (Protein disulfide isomerase) | DRSC11250 | 77401 | – | – | 4724 | 2616 | inactive |
| Rh3 (Rhodopsin 3) | DRSC16822 | 1.11e5 | 83779 | – | 5314 | 3573 | inactive |
| CG15390 | DRSC00404 | 1.37e5 | 1.11e5 | – | 3483 | 2464 | inactive |
| Cip4 (Cdc42-interacting protein 4) | DRSC08091 | 1.47e5 | 3.12e5 | – | 2939 | 12044 | inactive |
| Cip4 (Cdc42-interacting protein 4) | DRSC08469 | 83932 | 83700 | – | 3802 | 3040 | inactive |
| G6P (Glucose-6-Phosphatase) | DRSC00414 | 1.20e5 | 90704 | – | 2708 | 2529 | inactive |
| CG9590 | DRSC16506 | 1.30e5 | 82460 | – | 4189 | 3360 | inactive |
| Vha44 (Vacuolar H[+] ATPase 44kD subunit) | DRSC07572 | 1.67e5 | 89600 | – | 5366 | 2485 | active |
| Vha44 (Vacuolar H[+] ATPase 44kD subunit) | DRSC07573 | 83392 | 48372 | – | 2157 | 3435 | inactive |
| CG2841 | DRSC17699 | 6.77e5 | 9.25e5 | 2.53e5 | 34381 | 6460 | inactive |
| CG2841 | DRSC18824 | 50397 | 2.29e5 | – | 1010 | 8241 | inactive |
| EMC2B + EMC2A | DRSC15241 | 92856 | 94368 | – | 994 | 2450 | inactive |
| mamo (maternal gene required for meiosis) | DRSC19001 | 2.13e5 | 38648 | – | 15972 | 1392 | active |
| mamo (maternal gene required for meiosis) | DRSC19370 | 87931 | 2.35e5 | – | 1488 | 8453 | inactive |
| mamo (maternal gene required for meiosis) | DRSC19371 | 98864 | 3.08e5 | – | 2246 | 10546 | inactive |
| mamo (maternal gene required for meiosis) | DRSC19372 | 1.20e5 | 4.57e5 | 3.58e5 | 3460 | 2802 | inactive |
| mamo (maternal gene required for meiosis) | DRSC19373 | 1.39e5 | 6.95e5 | 4.36e5 | 3856 | 3360 | inactive |
| CG1622 | DRSC19745 | 98267 | 94343 | – | 2893 | 2256 | inactive |
| GstE6 (Glutathione S transferase E6) | DRSC06676 | 1.53e5 | 64103 | – | 4003 | 4965 | inactive |
| Cpr67B (Cuticular protein 67B) | DRSC10373 | 1.54e5 | 81291 | – | 5643 | 3674 | inactive |
| CG14459 | DRSC11719 | 15942 | 13549 | – | 1424 | 448 | active |
| Cc2d2a (Coiled-coil and C2 domain containing 2A) | DRSC06750 | 83461 | 44717 | – | 2285 | 3360 | inactive |
| Cc2d2a (Coiled-coil and C2 domain containing 2A) | DRSC06779 | 1.03e5 | 60937 | – | 2621 | 4165 | inactive |
| Rad9 | DRSC11263 | 88130 | 60281 | – | 3138 | 2769 | inactive |

A stretch of the results above, as a working copy:
| gene | dsRNA | firefly Hh reporter signal, replicate 1 | firefly Hh reporter signal, replicate 2 | firefly Hh reporter signal, replicate 3 | Renilla reference signal, replicate 1 | Renilla reference signal, replicate 2 | Outcome |
| --- | --- | --- | --- | --- | --- | --- | --- |
| Vha44 (Vacuolar H[+] ATPase 44kD subunit) | DRSC07573 | 83392 | 48372 | – | 2157 | 3435 | inactive |
| CG2841 | DRSC17699 | 6.77e5 | 9.25e5 | 2.53e5 | 34381 | 6460 | inactive |
| CG2841 | DRSC18824 | 50397 | 2.29e5 | – | 1010 | 8241 | inactive |
| EMC2B + EMC2A | DRSC15241 | 92856 | 94368 | – | 994 | 2450 | inactive |
| mamo (maternal gene required for meiosis) | DRSC19001 | 2.13e5 | 38648 | – | 15972 | 1392 | active |
| mamo (maternal gene required for meiosis) | DRSC19370 | 87931 | 2.35e5 | – | 1488 | 8453 | inactive |

Additional reagents:
| gene | dsRNA | firefly Hh reporter signal, replicate 1 | firefly Hh reporter signal, replicate 2 | firefly Hh reporter signal, replicate 3 | Renilla reference signal, replicate 1 | Renilla reference signal, replicate 2 | Outcome |
| --- | --- | --- | --- | --- | --- | --- | --- |
| CG8192 | DRSC07101 | 53680 | 52736 | – | 2347 | 1866 | inactive |
| SmE (Small ribonucleoprotein particle protein SmE) | DRSC02680 | 39264 | 34945 | – | 1778 | 3991 | active |
| SCCRO3 (Squamous cell carcinoma-related oncogene 3) | DRSC06359 | 63276 | 51091 | – | 1773 | 3721 | inactive |
| Epac (Exchange protein directly activated by cAMP) | DRSC04969 | 5.86e5 | 1.11e5 | – | 4560 | 4560 | inactive |
| Epac (Exchange protein directly activated by cAMP) | DRSC04996 | 1.12e5 | 94795 | – | 4961 | 3814 | inactive |
| Epac (Exchange protein directly activated by cAMP) | DRSC04997 | 73133 | 34756 | – | 2112 | 2585 | inactive |
| COX3 (retired record) | DRSC21279 | 72442 | 1.87e5 | – | 1421 | 7904 | inactive |
| qin | DRSC14782 | 6.26e5 | 1.01e5 | – | 27782 | 2627 | inactive |
| qin | DRSC14785 | 7.35e5 | 1.15e5 | – | 34113 | 3416 | inactive |
| Alms1b + Alms1a | DRSC18559 | 1.00e5 | 91659 | – | 283 | 2364 | inactive |
| Sol1 | DRSC15263 | 58013 | 98096 | – | 1916 | 2778 | inactive |
| Sol1 | DRSC15271 | 94448 | 1.81e5 | – | 3223 | 4588 | inactive |
| Sol1 | DRSC15681 | 1.02e5 | 1.49e5 | – | 4011 | 3931 | inactive |
